In publication PMC9192718:
These are yes or no findings as the source states them, for the method shown. Binding calls can cover weak binding; strength is not graded here. Where a sequence is shown, tags or fusion partners need not be part of it. Each block holds one molecule with its values, some of them ahead of it.

Assays:
Experiment in all cases: two-hybrid; systematic, reciprocal; LexA DNA-binding domain (pMM5) and Gal4 activation domain (pMM6) fusions in mated budding yeast SGY37 and YPH500; X-Gal overlay, scanned after 16 hr
[1] = target: T1, Schizosaccharomyces pombe Vps25 (ESCRT-II), yeast two-hybrid fusion (Schizosaccharomyces pombe) (UniProt O74967)
T1 sequence: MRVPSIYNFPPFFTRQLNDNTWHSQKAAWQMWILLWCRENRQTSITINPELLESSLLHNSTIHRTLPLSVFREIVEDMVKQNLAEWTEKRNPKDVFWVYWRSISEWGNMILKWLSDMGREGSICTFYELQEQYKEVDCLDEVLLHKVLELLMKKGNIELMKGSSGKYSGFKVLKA

[2] = target: Schizosaccharomyces pombe Vps32 (ESCRT-III), yeast two-hybrid fusion (Schizosaccharomyces pombe)
[3] = target: Schizosaccharomyces pombe Vps22 (ESCRT-II), yeast two-hybrid fusion (Schizosaccharomyces pombe)

binding [1]: binds
Molecule: Schizosaccharomyces pombe Vps22 (ESCRT-II), yeast two-hybrid fusion

binding [2]: binds | binding [3]: binds
B1: Schizosaccharomyces pombe Vps20 (ESCRT-III), yeast two-hybrid fusion (protein, UniProt O94318 1-226)
chain: MGVNSSKINDKDRSILSIKEQRDKLLRYSKRLEKIEQLEIDIARKCLRDSDKRGALRALKAKKLYSGLITQTYGQLGNIEQLLSTIEFTLIQKDVMFGLQEGTNLIRQLQADMPLERVGRICNDRDEAMSYVDEVNDMLQGRMSRDQEDEIQEELDSLIREQEDEKVKDLEKPGFTPSTGVDVLPSVPLKNAIPSLDESFPKAASVSNTSSAVVIDEELRKDPVLG
